Measurements published in patent US10173997B2, “Bipyridine compound and use of same for noxious arthropod control” (Sumitomo Chemical Company, Limited, priority 2015, dated 2019).
Some of these results come from one statement about several compounds together. At least one structure is not confirmed: it was looked up by name or label, or the drawing left a doubt.

How the values were obtained:
Assay type in all cases: in vivo
[1] = system: cotton aphid (Aphis gossypii); assay: Test Example 1: cotton aphid on cucumber, foliar spray, 500 ppm; details: 20 mL sprayed on cucumber seedling carrying aphids, after 6 days
[2] = system: cotton aphid (Aphis gossypii); assay: Test Example 2: cotton aphid on cucumber, foliar spray, 200 ppm; details: 20 mL sprayed on cucumber seedling carrying aphids, after 6 days
[3] = system: brown planthopper (Nilaparvata lugens); assay: Test Example 6: brown planthopper on rice, irrigation into plant foot, 200 ppm; details: 5 mL irrigated into plant foot of rice, larvae released after 7 days, counted after additional 6 days
[4] = system: brown planthopper (Nilaparvata lugens); assay: Test Example 4: brown planthopper on rice, foliar spray, 500 ppm; details: 10 mL sprayed on rice seedling, 3rd to 4th instar larvae, after 6 days
[5] = system: cotton aphid (Aphis gossypii); assay: Test Example 3: cotton aphid on cucumber, irrigation into plant foot, 200 ppm; details: 5 mL irrigated into plant foot of cucumber, aphids inoculated after 7 days, counted after additional 6 days
[6] = system: brown planthopper (Nilaparvata lugens); assay: Test Example 5: brown planthopper on rice, foliar spray, 200 ppm; details: 10 mL sprayed on rice seedling, 3rd to 4th instar larvae, after 6 days

Measured: controlling value

CCS(=O)(=O)c1ccc[n+]([O-])c1-c1ccc(OCC(F)(F)C(F)(F)F)cn1 [compound 214]
≥ 90%: [1] | [2] | [3] | [4]

CCS(=O)(=O)c1cccnc1-c1ccc(OC2CCC(C(F)(F)F)CC2)cn1 (stereo not shown) [compound 309]
≥ 90%: [5] | [1] | [2]

CCS(=O)(=O)c1cc(C(F)(F)F)c(NNC(C)C)nc1-c1ccc(OCC(F)(F)C(F)(F)F)cn1 [compound 332]
≥ 90%: [2]

CC[S+]([O-])c1cccnc1-c1ccc(OC(F)(F)C(F)OC(F)(F)F)cn1 (stereo not shown) [compound 23]
≥ 90%: [2]

CCS(=O)(=O)c1cc(Br)c(N)nc1-c1ccc(OCC(F)(F)C(F)(F)F)cn1 [compound 344]
not listed: [3]
≥ 90%: all other assays above

CCS(=O)(=O)c1cccnc1-c1ccc(OCC(F)(F)C(F)(F)C(F)(F)C(F)(F)F)cn1 [compound 16]
≥ 90%: [1]

CCS(=O)(=O)c1cc(Cl)c(N)nc1-c1ccc(OCC(F)(F)C(F)(F)F)cn1 [compound 346]
≥ 90%: all assays above

CCS(=O)(=O)c1cccnc1-c1ccc(OCC(F)(F)C(F)(F)C(F)(F)F)cn1 [compound 15]
≥ 90%: [5] | [2] | [3] | [6]

CCS(=O)(=O)c1cc(C(F)(F)F)c(NCCN)nc1-c1ccc(OCC(F)(F)C(F)(F)F)cn1 [compound 325]
≥ 90%: [1] | [2]

C=CCC(Oc1ccc(-c2ncccc2S(=O)(=O)CC)nc1)C(F)(F)F (stereo not shown) [compound 305]
≥ 90%: [1] | [2] | [4]

CCS(=O)(=O)c1cccnc1-c1ccc(OC(F)(F)C(F)OC(F)(F)F)cn1 (stereo not shown) [compound 24]
≥ 90%: [2] | [3] | [6]

CCS(=O)(=O)c1cc(C(F)(F)F)c(-n2cccn2)nc1-c1ccc(OCC(F)(F)C(F)(F)F)cn1 [compound 339]
≥ 90%: [1]

CCS(=O)(=O)c1ccc(N(N)C(C)C)nc1-c1ccc(OCC(F)(F)C(F)(F)F)cn1 [compound 320]
≥ 90%: all assays above

CC[S+]([O-])c1cccnc1-c1ccc(OC(F)(F)C(F)C(F)(F)F)cn1 (stereo not shown) [compound 10]
≥ 90%: [1] | [2] | [6] | [4]

CCS(=O)(=O)c1cccnc1-c1cc(Cl)c(OCC(F)(F)C(F)(F)F)cn1 [compound 184]
≥ 90%: all assays above

CCC(Oc1ccc(-c2ncccc2S(=O)(=O)CC)nc1)C(F)(F)C(F)(F)F (stereo not shown) [compound 304]
≥ 90%: [1] | [2] | [4]

CCS(=O)(=O)c1cccnc1-c1ccc(OC2CCC(F)(F)CC2)cn1 [compound 306]
≥ 90%: [5] | [1] | [2]

CCS(=O)(=O)c1cccnc1-c1ccc(OCCBr)cn1 [compound 315]
≥ 90%: [1]

CCS(=O)(=O)c1cc(C(F)(F)F)c(SC)nc1-c1ccc(OCC(F)(F)C(F)(F)F)cn1 [compound 328]
≥ 90%: [1]

CCS(=O)(=O)c1ccc(NC)nc1-c1ccc(OCC(F)(F)C(F)(F)F)cn1 [compound 64]
≥ 90%: all assays above

CCS(=O)(=O)c1cccnc1-c1ccc(OCC2(C(F)(F)F)CC2)cn1 [compound 308]
≥ 90%: [1] | [2] | [4]

CCS(=O)(=O)c1cc(C(F)(F)F)c(-n2ncnc2N)nc1-c1ccc(OCC(F)(F)C(F)(F)F)cn1 [compound 341]
≥ 90%: [1]

CCS(=O)(=O)c1cccnc1-c1ccc(OC(F)(F)C(F)C(F)(F)F)cn1 (stereo not shown) [compound 11]
≥ 90%: [5] | [2] | [3] | [6]

CCS(=O)(=O)c1cccnc1-c1ccc(OC(C)C(F)(F)C(F)(F)F)cn1 (stereo not shown) [compound 303]
≥ 90%: all assays above

CCS(=O)(=O)c1ccc(SC)nc1-c1ccc(OCC(F)(F)C(F)(F)F)cn1 [compound 323]
≥ 90%: [1]

CCS(=O)(=O)c1cc(C(F)(F)F)c(N2CCNCC2)nc1-c1ccc(OCC(F)(F)C(F)(F)F)cn1 [compound 336]
≥ 90%: [1]

CCS(=O)(=O)c1cccnc1-c1ccc(OCC2CC2(F)F)cn1 (stereo not shown) [compound 307]
≥ 90%: [1] | [2]

CCS(=O)(=O)c1ccc(N(C)N)nc1-c1ccc(OCC(F)(F)C(F)(F)F)cn1 [compound 318]
≥ 90%: all assays above

CCS(=O)(=O)c1cccnc1-c1ccc(OC(C(C)C)C(F)(F)F)cn1 (stereo not shown) [compound 302]
≥ 90%: [5] | [1] | [2]

CCS(=O)(=O)c1cccnc1-c1ccc(OCC(F)(F)C(F)(F)F)c[n+]1[O-] [compound 204]
≥ 90%: all assays above

CC[S+]([O-])c1cccnc1-c1ccc(OCC(F)(F)C(F)F)cn1 (stereo not shown) [compound 29]
≥ 90%: [5] | [2] | [3] | [6]

CCC(Oc1ccc(-c2ncccc2S(=O)(=O)CC)nc1)C(F)(F)F (stereo not shown) [compound 301]
not listed: [3]
≥ 90%: all other assays above

CCS(=O)(=O)c1ccc(NN)nc1-c1ccc(OCC(F)(F)C(F)(F)F)cn1 [compound 316]
≥ 90%: [5] | [2] | [3] | [6]

CCS(=O)(=O)c1cccnc1-c1ccc(OC=C(F)C(F)(F)F)cn1 [compound 314]
not listed: [3]
≥ 90%: all other assays above

CCS(=O)(=O)c1cc(C(F)(F)F)c(N(C)N)nc1-c1ccc(OCC(F)(F)C(F)(F)F)cn1 [compound 330]
≥ 90%: [1]

CCS(=O)(=O)c1cccnc1-c1ccc(OCC(C)(F)F)cn1 [compound 12]
≥ 90%: all assays above

CS(=O)(=O)c1cccnc1-c1ccc(OCC(F)(F)C(F)(F)F)cn1 [compound 235]
≥ 90%: [5] | [2] | [3] | [6]

CC[S+]([O-])c1cccnc1-c1ccc(OCC(F)(F)C(F)(F)F)cn1 (stereo not shown) [compound 30]
≥ 90%: [5] | [2] | [3] | [6]

CCS(=O)(=O)c1cc(C(F)(F)F)c(NCCO)nc1-c1ccc(OCC(F)(F)C(F)(F)F)cn1 [compound 326]
≥ 90%: [1]

CCS(=O)(=O)c1cccnc1-c1ccc(OCC(F)(F)C(F)(F)F)c(Cl)n1 [compound 169]
≥ 90%: all assays above

CCS(=O)(=O)c1ccc(NNC(C)C)nc1-c1ccc(OCC(F)(F)C(F)(F)F)cn1 [compound 319]
≥ 90%: [5] | [2] | [3] | [6]

CCS(=O)(=O)c1cccnc1-c1ccc(OCC(F)(F)C(F)(F)C(F)(F)C(F)(F)C(F)(F)C(F)(F)C(F)(F)F)cn1 [compound 311]
≥ 90%: [1]

CCN(N)c1nc(-c2ccc(OCC(F)(F)C(F)(F)F)cn2)c(S(=O)(=O)CC)cc1C(F)(F)F [compound 331]
≥ 90%: [1]

CCS(=O)(=O)c1cc(C(F)(F)F)c(NNC(C)=O)nc1-c1ccc(OCC(F)(F)C(F)(F)F)cn1 [compound 335]
not listed: [1]
≥ 90%: all other assays above
